Experimental data: PubChem BioAssay AID1224828 (NIAID, 2016)
This is a random part of about 17,000 reagents. Of all reagents, 762 (4.5%) got an active call. 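Active calls include both raised and lowered p65 entry, mostly lowered; wells with fewer than 50 cells lack a z-score.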 Raw values vary from plate to plate and are shown uncorrected. Reagents against one gene are numbered here. No sequences are given here.

Test: 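Knock-downs that increase or decrease LPS-induced p65 nuclear translocation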 (primary screen)
System: mouse RAW264.7 G9 macrophage reporter cells (GFP-p65, Tnf promoter-mCherry)
Reagents: siRNA pool against mouse genes, 100 nM
Time to read-out: 2 days siRNA transfection, then 40 min LPS before fixation
Challenge: LPS (Salmonella minnesota R595) at 10 ng/ml
Measurement: 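Imaged p65 nuclear translocation ratio, normalised to the plate median, converted to robust z-scores and averaged across two replicates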
Scale: p65 translocation robust z-score: higher = more nuclear NF-kappaB p65 after LPS than the plate median; nuclear/cytoplasmic p65 ratio: higher = more nuclear NF-kappaB p65
Active means: 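Active if robust z is above 3.3 (negative regulators) or below -1.56, the Tlr4 control median (positive regulators); activity score 50 or more; control wells not called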
Calls: active = hit (p65 shift raised or lowered); inactive = no clear change

| gene | pool no. | p65 translocation robust z-score | nuclear/cytoplasmic p65 ratio, rep 1 | nuclear/cytoplasmic p65 ratio, rep 2 | low cell count flag | Outcome |
| --- | --- | --- | --- | --- | --- | --- |
| L3mbtl4 | 1 | – | 1.21 | 1.44 | fewer than 50 cells per well; well left out of scoring | inactive |
| L3mbtl4 | 2 | -0.13 | 1.46 | 1.62 | enough cells to score | inactive |
| Mmp21 | 1 | -1.13 | 1.27 | 1.22 | enough cells to score | inactive |
| Or11h4b | 1 | – | 1.47 | 1.24 | fewer than 50 cells per well; well left out of scoring | inactive |
| Spire1 | 1 | -0.24 | 1.33 | 1.25 | enough cells to score | inactive |
| Rnf38 | 1 | – | 1.65 | 1.16 | fewer than 50 cells per well; well left out of scoring | inactive |
| Rpl18 | 1 | -0.29 | 1.22 | 1.19 | enough cells to score | inactive |
| Fndc3a | 1 | 0.2 | 1.59 | 1.52 | enough cells to score | inactive |
| Cnppd1 | 1 | 1.79 | 1.53 | 1.57 | enough cells to score | inactive |
| Angpt1 | 1 | -0.73 | 1.52 | 1.5 | enough cells to score | inactive |
| Mphosph10 | 1 | 1.15 | 1.9 | 1.83 | enough cells to score | inactive |
| Rnf43 | 1 | – | 1.31 | 1.27 | fewer than 50 cells per well; well left out of scoring | inactive |
| Cd68 | 1 | -0.4 | 1.39 | 1.34 | enough cells to score | inactive |
| Aldh1b1 | 1 | -0.17 | 1.6 | 1.58 | enough cells to score | inactive |
| Nudt8 | 1 | 1.14 | 1.86 | 1.72 | enough cells to score | inactive |
| Map3k9 | 1 | 1.26 | 1.46 | 1.53 | enough cells to score | inactive |
| Ucp2 | 1 | -0.43 | 1.49 | 1.41 | enough cells to score | inactive |
| Or6c35 | 1 | – | 1.75 | 1.73 | fewer than 50 cells per well; well left out of scoring | inactive |
| Carf | 1 | -0.07 | 1.59 | 1.62 | enough cells to score | inactive |
| Abca15 | 1 | 1.69 | 1.81 | 2 | enough cells to score | inactive |
| Baiap2 | 1 | -0.55 | 1.52 | 1.55 | enough cells to score | inactive |
| Gemin7 | 1 | -1.54 | 1.36 | 1.26 | enough cells to score | inactive |
| Slfn1 | 1 | – | 1.3 | 1.04 | fewer than 50 cells per well; well left out of scoring | inactive |
| Kcnk10 | 1 | -0.02 | 1.35 | 1.42 | enough cells to score | inactive |
| Morc4 | 1 | -0.8 | 1.36 | 1.26 | enough cells to score | inactive |
| Snx16 | 1 | – | 0.99 | 1.03 | fewer than 50 cells per well; well left out of scoring | inactive |

A few values from the entries so far.
Cd68, p65 translocation robust z-score = -0.4
For “nuclear/cytoplasmic p65 ratio, rep 1”, Map3k9 shows 1.46
Under “Outcome”, Fndc3a has inactive
Result for Gemin7 in “Outcome”: inactive
For “nuclear/cytoplasmic p65 ratio, rep 2”, Morc4 reads 1.26
Under “p65 translocation robust z-score”, Rpl18 has -0.29

Additional records follow.
| gene | pool no. | p65 translocation robust z-score | nuclear/cytoplasmic p65 ratio, rep 1 | nuclear/cytoplasmic p65 ratio, rep 2 | low cell count flag | Outcome |
| --- | --- | --- | --- | --- | --- | --- |
| D630029K05Rik | 1 | -0.91 | 1.35 | 1.51 | enough cells to score | inactive |
| Or1j20 | 1 | -1.13 | 1.41 | 1.3 | enough cells to score | inactive |
| PLEKHK1 | 1 | -1.43 | 1.19 | 1.04 | enough cells to score | inactive |
| Wwp1 | 1 | 0.88 | 1.75 | 1.74 | enough cells to score | inactive |
| Impg1 | 1 | -0.61 | 1.41 | 1.29 | enough cells to score | inactive |
| Fetub | 1 | -0.23 | 1.56 | 1.43 | enough cells to score | inactive |
| Gfi1b | 1 | -1.8 | 1.15 | 1.16 | enough cells to score | active |
| Lypd3 | 1 | – | 1.33 | 1.62 | fewer than 50 cells per well; well left out of scoring | inactive |
| Abcd4 | 1 | 0.94 | 1.47 | 1.85 | enough cells to score | inactive |
| Esrp2 | 1 | – | 1.5 | 1.38 | fewer than 50 cells per well; well left out of scoring | inactive |
| Adgrv1 | 1 | 1.67 | 1.68 | 1.54 | enough cells to score | inactive |
| Atp13a2 | 1 | 0.17 | 1.63 | 1.64 | enough cells to score | inactive |
| Slc38a10 | 1 | -0.42 | 1.31 | 1.08 | enough cells to score | inactive |
| Rbm19 | 1 | -0.5 | 1.27 | 1.41 | enough cells to score | inactive |
| Slc39a10 | 1 | – | 0 | 1.51 | fewer than 50 cells per well; well left out of scoring | inactive |
| Tmem109 | 1 | 0.75 | 1.49 | 1.69 | enough cells to score | inactive |
| Vapb | 1 | 0.72 | 1.52 | 1.28 | enough cells to score | inactive |
| Efhb | 1 | 1.89 | 1.51 | 1.51 | enough cells to score | inactive |
| Cops8 | 1 | 1.1 | 1.7 | 2 | enough cells to score | inactive |
| Nrp2 | 1 | 0.19 | 1.46 | 1.45 | enough cells to score | inactive |
| Tmem116 | 1 | -3.26 | 1.08 | 0.977 | enough cells to score | active |
| Tfdp2 | 1 | -0.52 | 1.55 | 1.52 | enough cells to score | inactive |
| Il1rapl2 | 1 | 0.08 | 1.46 | 1.42 | enough cells to score | inactive |
| Wdr11 | 1 | 0.71 | 1.62 | 1.7 | enough cells to score | inactive |
| Fosb | 1 | -1.39 | 1.27 | 1.18 | enough cells to score | inactive |
| Or8b57 | 1 | -0.75 | 1.34 | 1.07 | enough cells to score | inactive |
| Potefam1 | 1 | – | 1.28 | 1.44 | fewer than 50 cells per well; well left out of scoring | inactive |
| Cntn4 | 1 | 0.6 | 1.65 | 1.92 | enough cells to score | inactive |
| Nox4 | 1 | 0.08 | 1.88 | 1.41 | enough cells to score | inactive |
| Abo | 1 | 1.22 | 1.74 | 1.92 | enough cells to score | inactive |
| Ddx11 | 1 | -0.27 | 1.57 | 1.58 | enough cells to score | inactive |
| Ecd | 1 | -0.34 | 1.49 | 1.63 | enough cells to score | inactive |
| Ccrl2 | 1 | -0.98 | 1.37 | 1.43 | enough cells to score | inactive |
